Here are results for seven molecules from PMC9676655.

Chains of the proteins cited; added tags and fusions are not shown.
UniProt Q6MG49: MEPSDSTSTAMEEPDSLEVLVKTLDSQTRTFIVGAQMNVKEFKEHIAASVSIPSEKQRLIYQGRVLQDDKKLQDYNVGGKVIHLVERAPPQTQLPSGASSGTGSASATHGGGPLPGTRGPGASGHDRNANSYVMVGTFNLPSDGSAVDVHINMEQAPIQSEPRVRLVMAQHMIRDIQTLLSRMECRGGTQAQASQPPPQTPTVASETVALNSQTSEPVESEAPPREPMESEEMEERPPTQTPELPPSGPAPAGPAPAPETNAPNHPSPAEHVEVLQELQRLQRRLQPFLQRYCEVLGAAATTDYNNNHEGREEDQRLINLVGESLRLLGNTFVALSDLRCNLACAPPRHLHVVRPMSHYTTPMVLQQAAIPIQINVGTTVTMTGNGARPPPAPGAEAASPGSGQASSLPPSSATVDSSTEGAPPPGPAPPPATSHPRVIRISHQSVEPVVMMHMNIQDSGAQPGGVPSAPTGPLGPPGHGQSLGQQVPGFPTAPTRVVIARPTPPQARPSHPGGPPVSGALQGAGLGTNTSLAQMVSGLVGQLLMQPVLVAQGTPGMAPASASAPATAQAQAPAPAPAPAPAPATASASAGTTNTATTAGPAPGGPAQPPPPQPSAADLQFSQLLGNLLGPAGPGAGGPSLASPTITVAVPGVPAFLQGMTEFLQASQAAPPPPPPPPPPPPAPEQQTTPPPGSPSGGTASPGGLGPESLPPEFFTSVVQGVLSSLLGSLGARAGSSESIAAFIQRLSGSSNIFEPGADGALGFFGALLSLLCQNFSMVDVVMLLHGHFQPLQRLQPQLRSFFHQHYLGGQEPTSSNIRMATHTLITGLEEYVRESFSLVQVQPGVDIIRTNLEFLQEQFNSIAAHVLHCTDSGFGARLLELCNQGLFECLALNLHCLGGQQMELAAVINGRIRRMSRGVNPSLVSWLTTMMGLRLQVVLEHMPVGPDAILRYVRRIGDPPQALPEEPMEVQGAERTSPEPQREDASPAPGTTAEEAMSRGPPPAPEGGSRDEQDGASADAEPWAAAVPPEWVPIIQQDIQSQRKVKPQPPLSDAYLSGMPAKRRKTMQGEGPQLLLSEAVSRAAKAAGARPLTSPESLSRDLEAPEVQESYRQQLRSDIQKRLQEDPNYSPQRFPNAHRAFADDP
UniProt Q8R560: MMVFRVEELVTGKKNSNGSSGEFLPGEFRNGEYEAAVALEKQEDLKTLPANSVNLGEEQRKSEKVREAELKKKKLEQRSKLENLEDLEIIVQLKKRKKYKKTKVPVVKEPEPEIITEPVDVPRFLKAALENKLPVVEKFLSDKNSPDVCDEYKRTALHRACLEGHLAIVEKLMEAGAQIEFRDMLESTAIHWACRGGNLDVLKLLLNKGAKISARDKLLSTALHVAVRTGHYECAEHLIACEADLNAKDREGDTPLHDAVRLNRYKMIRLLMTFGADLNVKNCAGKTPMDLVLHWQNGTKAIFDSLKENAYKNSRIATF
UniProt O08629: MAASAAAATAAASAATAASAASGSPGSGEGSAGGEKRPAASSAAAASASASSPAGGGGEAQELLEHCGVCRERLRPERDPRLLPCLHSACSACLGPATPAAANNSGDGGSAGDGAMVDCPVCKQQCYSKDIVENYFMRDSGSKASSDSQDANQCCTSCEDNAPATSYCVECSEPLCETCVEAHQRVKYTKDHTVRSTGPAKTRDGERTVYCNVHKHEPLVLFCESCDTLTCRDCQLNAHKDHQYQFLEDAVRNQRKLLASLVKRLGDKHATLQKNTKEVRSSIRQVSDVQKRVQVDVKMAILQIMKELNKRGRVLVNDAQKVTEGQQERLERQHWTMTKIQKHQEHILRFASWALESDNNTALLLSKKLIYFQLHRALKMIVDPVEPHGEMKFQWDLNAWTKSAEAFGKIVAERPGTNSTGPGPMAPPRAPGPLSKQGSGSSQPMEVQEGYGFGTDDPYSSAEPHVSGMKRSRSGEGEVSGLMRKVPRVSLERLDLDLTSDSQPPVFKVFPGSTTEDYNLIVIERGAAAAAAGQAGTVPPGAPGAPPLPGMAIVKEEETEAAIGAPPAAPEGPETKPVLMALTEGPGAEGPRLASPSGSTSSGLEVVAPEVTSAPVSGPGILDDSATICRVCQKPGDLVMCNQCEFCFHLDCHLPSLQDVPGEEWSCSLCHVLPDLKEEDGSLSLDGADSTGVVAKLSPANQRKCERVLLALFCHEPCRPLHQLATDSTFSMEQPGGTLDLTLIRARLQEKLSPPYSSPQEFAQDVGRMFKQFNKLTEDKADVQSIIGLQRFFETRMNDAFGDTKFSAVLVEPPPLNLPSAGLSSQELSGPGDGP

B1: ERRα (endogenous in rat cardiomyocytes) (protein, UniProt Q5QJV7 1-422)
chain: MSSQVVGIEPLYIKAEPASPDSPKGSSETETEPPVTLASGPAPARCLPGHKEEEDGEGAGSGEQGSGKLVLSSLPKRLCLVCGDVASGYHYGVASCEACKAFFKRTIQGSIEYSCPASNECEITKRRRKACQACRFTKCLRVGMLKEGVRLDRVRGGRQKYKRRPEVDPLPFPGPFPAGPLAVAGGPRKTAPVNALVSHLLVVEPEKLYAMPDPASPDGHLPAVATLCDLFDREIVVTISWAKSIPGFSSLSLSDQMSVLQSVWMEVLVLGVAQRSLPLQDELAFAEDLVLDEEGARAAGLGDLGAALLQLVRRLQALRLEREEYVLLKALALANSDSVHIEDAEAVEQLREALHEALLEYEAGRAGPGGGAERRRAGRLLLTLPLLRQTAGKVLAHFYGVKLEGKVPMHKLFLEMLEAMMD
B2: KANK2 (KN motif and ankyrin repeat domains 2) (protein, UniProt D3ZD05 1-847)
chain: MAQVLHVPAPFPGTPGQASSAAFPNKEPDPPYSVETPYGYRLDLDFLKYVDDIEKGHTLRRVPVQRRPRLGSLPRGPGSWWTSTESLCSDASGDSRHSAYSYCGRGFYPQYGALETRSGTNPRVERTLLDARRRLEDQAAAPSSGGLGSLTPSAAGSTSSLAGVGLLPPTPRSSGLSTPVAPSAGHLAHVREQMAGALRKLRQLEEQVKLIPVLQVKLSVLQEEKRQLTVQLKSQKFLGHPSGTRSRSELCLDLPEAPDDPAVLETRSVGTWVRERDLGIPDGEAALVAKVAVLETQLKKALQELRAAQTQQVDLQPQAWPPPDTQVRVDTVRVVEGPREVEVAASTAAGAPAQRAQSLEPYGAGLKALATSAENTLVFRSHEVVETMCPLPTASTSNMHTAKKISITERNCTGAARMADPPPSPAEPSPSSPYPAAEPENPAPAAQDTTDRELTRPVASQDSQAAEGAGGASLGVQSALKRKEVPADPDVHQRNLQFVGINGGYESSSEDSSTAENSEHESTENEAPEPPVRVLSTAEGPQLRPLGPAVGKTSQDERQLSQESQRVPEAKVAPGPDPEEEIRMDLSPDLISACLALEKYLENPNALTERELKVAYTTVLQEWLRLACRSDAHPELVRRHLVTFRAMSARLLDYVVNIADSNGNTALHYSVSHANFPVVRQLLDSGVCQVDKLNRAGYSPIMLTALATLKTQDDIDTILQLFRLGNVNAKASQAGQTALMLAVSHGRVDVVKALLACEVDVNMQDEDGSTALMCACEHGHKEITGLLLAVPSCDISLTDRDGSTALMVALDAGQSEIASMLYSRMNIKCSFAPMSDYESPASSSAEE
B3: PGC-1α (protein, UniProt Q9QYK2 1-796)
chain: MAWDMCSQDSVWSDIECAALVGEDQPLCPDLPELDLSELDVNDLDTDSFLGGLKWCSDQSEIISNQYNNEPANIFEKIDEENEANLLAVLTETLDSLPVDEDGLPSFDALTDGDVTTDNEASPSSMPDGTPPPQEAEEPSLLKKLLLAPANTQLSYNECSGLSTQNHANHTHRIRTNPAIVKTENSWSNKAKSICQQQKPQRRPCSELLKYLTTNDDPPHTKPTENRNSSRDKCASKKKSHTQPQSQHAQAKPTTLSLPLTPESPNDPKGSPFENKTIERTLSVELSGTAGLTPPTTPPHKANQDNPFKASPKLKPSCKTVVPPPTKRARYSECSGTQGSHSTKKGPEQSELYAQLSKSSVLSRGHEERKTKRPSLRLFGDHDYCQSVNSKTDILINISQELQDSRQLDFKDASCDWQGHICSSTDSSQCYLRETLEASKQVSPCSTRKQLQDQEIRAELNKHFGHPSQAVFDDKVDKTSELRDGNFSNEQFSKLPVFINSGLAMDGLFDDSEDENDKLSYPWDGTQSYSLFDVSPSCSSFNSPCRDSVSPPKSLFSQRPQRMRSRSRSFSRHRSCSRSPYSRSRSRSPGSRSSSRSCYYYESSHYRHRTHRNSPLYVRSRSRSPYSRRPRYDSYEANEHERLKRDEYRREYEKRESERAKQRERQKQKAIEERRVIYVGKIRPDTTRTELRDRFEVFGEIEECTVNLRDDGDSYGFITYRYTCDAFAALENGYTLRRSNETDFELYFCGRKQFFKSNYADLDSNSDDFDPASTKSKYDSLDFDSLLKEAQRSLRR
B4: Estrogen-Related Receptor Alpha (ERRα) (protein, UniProt O08580 1-422)
chain: MSSQVVGIEPLYIKAEPASPDSPKGSSETETEPPVTLASGPAPARCLPGHKEEEDGEGAGSGEQGSGKLVLSSLPKRLCLVCGDVASGYHYGVASCEACKAFFKRTIQGSIEYSCPASNECEITKRRRKACQACRFTKCLRVGMLKEGVRLDRVRGGRQKYKRRPEVDPLPFPGPFPAGPLAVAGGPRKTAPVNALVSHLLVVEPEKLYAMPDPASPDGHLPAVATLCDLFDREIVVTISWAKSIPGFSSLSLSDQMSVLQSVWMEVLVLGVAQRSLPLQDELAFAEDLVLDEEGARAAGLGDLGAALLQLVRRLQALRLEREEYVLLKALALANSDSVHIEDAEAVEQLREALHEALLEYEAGRAGPGGGAERRRAGRLLLTLPLLRQTAGKVLAHFYGVKLEGKVPMHKLFLEMLEAMMD

Results are given in words; binding and its absence hold for the method and conditions named. Binding seen in cells or lysates may run through a third protein. Some binding calls cover weakened binding; strength is not graded here. For some of these results: Where a sequence is shown, tags or fusion partners need not be part of it.

One experiment has as its target T1, C-terminal Flag tagged PERM1 (PERM1-Flag) (UniProt Q149B8).
T1 sequence: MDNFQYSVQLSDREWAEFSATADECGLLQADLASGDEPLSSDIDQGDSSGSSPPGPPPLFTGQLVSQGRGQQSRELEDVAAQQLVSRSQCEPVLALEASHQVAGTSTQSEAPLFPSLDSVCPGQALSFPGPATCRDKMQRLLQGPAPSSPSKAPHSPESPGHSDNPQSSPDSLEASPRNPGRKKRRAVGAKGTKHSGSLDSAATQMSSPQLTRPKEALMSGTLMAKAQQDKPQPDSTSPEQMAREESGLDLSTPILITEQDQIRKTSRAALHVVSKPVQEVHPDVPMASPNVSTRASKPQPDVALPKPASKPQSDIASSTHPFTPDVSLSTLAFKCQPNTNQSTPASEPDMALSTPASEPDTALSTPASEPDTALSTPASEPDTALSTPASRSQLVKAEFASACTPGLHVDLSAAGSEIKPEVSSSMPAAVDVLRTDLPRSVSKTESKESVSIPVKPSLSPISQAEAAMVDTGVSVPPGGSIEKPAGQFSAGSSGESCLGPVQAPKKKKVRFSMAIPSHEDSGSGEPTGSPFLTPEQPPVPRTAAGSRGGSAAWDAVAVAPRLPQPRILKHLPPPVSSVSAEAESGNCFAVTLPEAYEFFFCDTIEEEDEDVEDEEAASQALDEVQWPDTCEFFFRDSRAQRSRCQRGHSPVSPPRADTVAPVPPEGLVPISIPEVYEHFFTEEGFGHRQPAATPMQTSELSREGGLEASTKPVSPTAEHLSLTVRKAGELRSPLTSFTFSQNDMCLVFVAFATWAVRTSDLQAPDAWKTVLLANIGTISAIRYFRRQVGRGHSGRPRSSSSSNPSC
The experiment in a line: co-IP; adenovirus PERM1-Flag transduced into cardiomyocytes; pulled down by anti-Flag antibody; immunoblot of endogenous partners.
“BLC2-associated anthanogene-6 (BAG6) (from UniProt Q6MG49 1-1146)”: the binding result is given as “binds”.

As for “ankyrin repeat domain 1 (ANKRD1) (from UniProt Q8R560 1-319)”, the binding result was “binds”.

In the case of “transcriptional intermediary factor 1β (TIF1β) (from UniProt O08629 1-835)”, the binding entry is on record as “binds”.

Turning to B1, the binding result is reported as “binds”.

For B2, the binding result is recorded as “binds”.

On to B3, for which the binding entry is recorded as “binds”.

The target in a further experiment is T2, PERM1 (PGC-1-, ERR-induced regulator, muscle 1) (mouse (endogenous in mouse heart)) (UniProt Q149B8).
T2 sequence: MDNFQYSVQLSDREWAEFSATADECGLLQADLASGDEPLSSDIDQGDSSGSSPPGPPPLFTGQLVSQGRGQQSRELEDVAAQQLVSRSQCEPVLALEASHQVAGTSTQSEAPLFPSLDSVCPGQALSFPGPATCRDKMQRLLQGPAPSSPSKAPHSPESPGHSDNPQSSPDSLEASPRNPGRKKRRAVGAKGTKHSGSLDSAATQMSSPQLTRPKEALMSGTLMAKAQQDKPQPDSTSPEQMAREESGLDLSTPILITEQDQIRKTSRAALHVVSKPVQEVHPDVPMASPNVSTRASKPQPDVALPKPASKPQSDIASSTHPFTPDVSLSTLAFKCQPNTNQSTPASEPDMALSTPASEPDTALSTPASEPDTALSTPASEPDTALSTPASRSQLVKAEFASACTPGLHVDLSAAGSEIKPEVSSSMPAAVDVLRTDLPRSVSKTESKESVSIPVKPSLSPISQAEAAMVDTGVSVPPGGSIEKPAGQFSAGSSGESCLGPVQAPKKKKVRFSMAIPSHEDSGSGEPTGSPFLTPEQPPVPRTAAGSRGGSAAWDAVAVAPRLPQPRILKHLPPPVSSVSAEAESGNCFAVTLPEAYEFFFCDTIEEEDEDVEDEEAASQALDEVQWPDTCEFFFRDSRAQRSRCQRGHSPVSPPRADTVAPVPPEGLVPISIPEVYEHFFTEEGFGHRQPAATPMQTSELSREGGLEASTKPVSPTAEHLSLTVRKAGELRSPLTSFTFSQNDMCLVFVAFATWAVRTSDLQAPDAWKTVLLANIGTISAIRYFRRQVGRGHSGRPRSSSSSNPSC
Nature of the experiment: co-IP; endogenous proteins from WT mouse heart lysate; immunoprecipitated with anti-PERM1 or anti-ERRα antibody, Protein A/G agarose; immunoblot. In general terms: In western blotting, separated proteins are transferred to a membrane and probed.
Turning to B4, the binding result is “binds”.
